Reference: patent US20170143835A1, “SUBSTITUTED ANIONIC COMPOUNDS CONSISTING OF A BACKBONE MADE UP OF A DISCRETE NUMBER OF SACCHARIDE UNITS” (ADOCIA, priority 2012, published 2017)
Some of these results come from one statement about several compounds together.

By UniProt entry, the sequences of proteins in these tests, tags left out. Residues count along the entry.
UniProt P02769, 25-607: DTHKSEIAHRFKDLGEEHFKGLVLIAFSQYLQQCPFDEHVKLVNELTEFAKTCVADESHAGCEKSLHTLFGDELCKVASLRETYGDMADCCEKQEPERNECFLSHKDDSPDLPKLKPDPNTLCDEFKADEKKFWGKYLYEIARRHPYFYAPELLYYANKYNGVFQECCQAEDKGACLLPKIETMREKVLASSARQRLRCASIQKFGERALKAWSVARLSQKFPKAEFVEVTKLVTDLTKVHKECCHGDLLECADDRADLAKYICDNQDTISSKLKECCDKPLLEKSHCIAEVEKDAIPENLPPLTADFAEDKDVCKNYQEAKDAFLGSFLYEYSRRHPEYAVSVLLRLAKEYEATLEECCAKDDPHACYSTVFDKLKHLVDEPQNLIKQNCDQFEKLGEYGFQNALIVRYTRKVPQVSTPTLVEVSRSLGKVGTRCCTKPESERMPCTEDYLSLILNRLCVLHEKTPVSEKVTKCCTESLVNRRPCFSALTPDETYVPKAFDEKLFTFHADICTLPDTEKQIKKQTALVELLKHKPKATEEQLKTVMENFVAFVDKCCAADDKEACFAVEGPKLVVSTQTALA

Biological target: serum albumin (BSA) (Bos taurus, UniProt P02769)
Experiment: Fluorescence test for interaction with albumin
Type: binding, bovine
Conditions: compound/BSA weight ratio of 1
Protocol: The test carried out is a “fluorescence” test with albumin, which makes it posible, by measuring the variations in fluorescence of albumin, to verify whether an interaction exists between the compound tested and albumin.
The compound/albumin solutions are prepared from stock solutions of compounds and of serum albumin (BSA) by mixing the appropriate volumes in order to obtain a fixed BSA concentration at 0.5 mg/ml and compound/BSA weight ratios of 1, 5 and 10. These solutions are prepared in a PBS buffer at pH 7.4.
200 μl of the various compound/BSA solutions are introduced into a 96-well plate. The fluorescence measurements are carried out at room temperature (20° C.) with an EnVision® fluorescence spectrometer (PerkinElmer). The excitation wavelength is 280 nm and the emission wavelength is 350 nm. This corresponds to the fluorescence of the tryptophan residues of albumin (Ruiz-Peña M. et al., M, A. Physico-chemical studies of molecular interactions between non-ionic surfactants and bovine serum albumin, Colloids Surf. B Biointerfaces 2010, 75, 282-289). The F (compound/BSA)/F0 (BSA alone) ratio makes it possible to evaluate the interaction between the compound and albumin. If this ratio is less than 1, this means that the compound induces partial quenching of the albumin fluorescence linked to a change in environment of the tryptophan residues. This change reflects an interaction between the compound and albumin. It was verified, as a control, that, for all the compounds tested, the fluorescence of the compound alone is negligible considering the fluorescence of albumin (fluorescence (compound) <2% fluorescence (albumin)).

Substance	fluorescence ratio F/F0
Sodium maltotriosemethylcarboxylate Functionalized with 2-[(2-dodecanoylamino-6-dodecanoylamino)hexanoylamino]ethanamine [Compound 20]	< 0.5
Sodium maltotriosemethylcarboxylate Functionalized with 2-aminoethyl dodecanoate [Compound 29]	< 0.5
Sodium maltotriosemethylcarboxylate Functionalized with 3,7-dimethyloctanoyl phenylalaninate [Compound 30]	< 0.5
Sodium maltotriosemethylcarboxylate Functionalized with L-leucine [Compound 24]	< 0.5
Sodium maltotriosemethylcarboxylate Functionalized with N-(2-aminoethyl)dodecanamide [Compound 21]	< 0.5
Sodium maltotriosemethylcarboxylate Functionalized with alpha-phenyiglycine [Compound 26]	< 0.5
Sodium maltotriosemethylcarboxylate Functionalized with decanoyl glycinate [Compound 23]	< 0.5
